Test [1] has as its target PD-L1-FLAG (Programmed Cell Death 1 Ligand 1) (UniProt Q9NZQ7). In words: co-IP; USP22, CSN5 and PD-L1 plasmids transfected as indicated, with or without the third protein (Fig. 7a, b); cells and antibodies not stated.
Test [2] concerns the target CSN5-His (COP9 Signalosome Subunit 5) (UniProt Q92905). In words: co-IP; HEK293FT cell lysates, IP under non-denaturing conditions with either anti-HA or anti-His antibody.
For test [3], the target named is PD-L1-FLAG (Programmed Cell Death 1 Ligand 1) (UniProt Q9NZQ7). Kind of test: co-IP; within the PD-L1 ubiquitination experiment with wild type or C185A USP22 (Fig. 4c); cells not stated for this panel.
Test [4] shares this target. Kind of test: co-IP; HEK293FT cells, transfected; IP with either anti-HA or anti-FLAG antibody; lysis buffer 20 mM Tris-HCl pH 7.5, 150 mM NaCl, 1% Triton; Western blot. On the technique in general: In western blotting, separated proteins are transferred to a membrane and probed.
Test [5] has as its target endogenous CSN5 (H1299 cells) (human (endogenous in H1299)) (UniProt Q92905). In words: co-IP; H1299 cells, endogenous proteins, IP with anti-USP22 or anti-CSN5 antibody.
The target of a further test is PD-L1 in H157 cells (UniProt Q9NZQ7). Kind of test: co-IP; H157 cells (Fig. S2A); lysis buffer 20 mM Tris-HCl pH 7.5, 150 mM NaCl, 1% Triton; Western blot.

By UniProt entry, the sequences of proteins in these tests, tags left out. Residues count along the entry.
UniProt Q9NZQ7, residues 19-290: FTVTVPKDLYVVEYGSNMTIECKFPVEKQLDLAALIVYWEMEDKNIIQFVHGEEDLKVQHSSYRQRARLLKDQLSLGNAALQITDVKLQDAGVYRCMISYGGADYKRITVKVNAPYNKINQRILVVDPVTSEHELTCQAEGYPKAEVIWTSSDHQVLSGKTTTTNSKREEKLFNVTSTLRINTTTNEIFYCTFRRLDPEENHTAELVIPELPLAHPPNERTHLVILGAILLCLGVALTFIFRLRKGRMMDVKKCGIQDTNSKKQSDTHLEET
UniProt Q92905: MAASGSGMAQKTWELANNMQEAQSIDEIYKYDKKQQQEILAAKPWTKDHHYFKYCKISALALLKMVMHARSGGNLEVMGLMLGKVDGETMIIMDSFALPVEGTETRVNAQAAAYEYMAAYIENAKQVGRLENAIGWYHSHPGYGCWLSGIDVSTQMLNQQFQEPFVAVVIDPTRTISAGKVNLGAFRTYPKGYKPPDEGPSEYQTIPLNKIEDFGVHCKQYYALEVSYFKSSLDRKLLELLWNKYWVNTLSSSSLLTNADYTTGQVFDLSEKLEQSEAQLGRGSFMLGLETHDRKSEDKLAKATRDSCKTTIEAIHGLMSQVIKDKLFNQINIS

These are yes or no findings as the source states them, for the method shown. Binding seen in cells or lysates may run through a third protein. Some entries that bind do so weakly or less than the wild type. For some assays here: Tags and fused reporters may be left off the sequences shown.

“CSN5-His (COP9 Signalosome Subunit 5) (from UniProt Q92905 1-334)”: in test [1], the binding result was “binds”.

B1: USP22-HA (Ubiquitin Specific Peptidase 22) (enzyme, UniProt Q9UPT9 1-525)
chain: MVSRPEPEGEAMDAELAVAPPGCSHLGSFKVDNWKQNLRAIYQCFVWSGTAEARKRKAKSCICHVCGVHLNRLHSCLYCVFFGCFTKKHIHEHAKAKRHNLAIDLMYGGIYCFLCQDYIYDKDMEIIAKEEQRKAWKMQGVGEKFSTWEPTKRELELLKHNPKRRKITSNCTIGLRGLINLGNTCFMNCIVQALTHTPLLRDFFLSDRHRCEMQSPSSCLVCEMSSLFQEFYSGHRSPHIPYKLLHLVWTHARHLAGYEQQDAHEFLIAALDVLHRHCKGDDNGKKANNPNHCNCIIDQIFTGGLQSDVTCQVCHGVSTTIDPFWDISLDLPGSSTPFWPLSPGSEGNVVNGESHVSGTTTLTDCLRRFTRPEHLGSSAKIKCSGCHSYQESTKQLTMKKLPIVACFHLKRFEHSAKLRRKITTYVSFPLELDMTPFMASSKESRMNGQYQQPTDSLNNDNKYSLFAVVNHQGTLESGHYTSFIRQHKDQWFKCDDAIITKASIKDVLDSEGYLLFYHKQFLEYE
For B1, the binding entry in test [2], in test [3], in test [1] and in test [4] was “binds” each time.

B2: endogenous USP22 (H1299 cells) (enzyme, UniProt Q9UPT9 1-525)
chain: MVSRPEPEGEAMDAELAVAPPGCSHLGSFKVDNWKQNLRAIYQCFVWSGTAEARKRKAKSCICHVCGVHLNRLHSCLYCVFFGCFTKKHIHEHAKAKRHNLAIDLMYGGIYCFLCQDYIYDKDMEIIAKEEQRKAWKMQGVGEKFSTWEPTKRELELLKHNPKRRKITSNCTIGLRGLINLGNTCFMNCIVQALTHTPLLRDFFLSDRHRCEMQSPSSCLVCEMSSLFQEFYSGHRSPHIPYKLLHLVWTHARHLAGYEQQDAHEFLIAALDVLHRHCKGDDNGKKANNPNHCNCIIDQIFTGGLQSDVTCQVCHGVSTTIDPFWDISLDLPGSSTPFWPLSPGSEGNVVNGESHVSGTTTLTDCLRRFTRPEHLGSSAKIKCSGCHSYQESTKQLTMKKLPIVACFHLKRFEHSAKLRRKITTYVSFPLELDMTPFMASSKESRMNGQYQQPTDSLNNDNKYSLFAVVNHQGTLESGHYTSFIRQHKDQWFKCDDAIITKASIKDVLDSEGYLLFYHKQFLEYE
As for B2, the binding entry in test [5] is recorded as “binds”.

B3: USP22 in H157 cells (enzyme, UniProt Q9UPT9 1-525)
chain: MVSRPEPEGEAMDAELAVAPPGCSHLGSFKVDNWKQNLRAIYQCFVWSGTAEARKRKAKSCICHVCGVHLNRLHSCLYCVFFGCFTKKHIHEHAKAKRHNLAIDLMYGGIYCFLCQDYIYDKDMEIIAKEEQRKAWKMQGVGEKFSTWEPTKRELELLKHNPKRRKITSNCTIGLRGLINLGNTCFMNCIVQALTHTPLLRDFFLSDRHRCEMQSPSSCLVCEMSSLFQEFYSGHRSPHIPYKLLHLVWTHARHLAGYEQQDAHEFLIAALDVLHRHCKGDDNGKKANNPNHCNCIIDQIFTGGLQSDVTCQVCHGVSTTIDPFWDISLDLPGSSTPFWPLSPGSEGNVVNGESHVSGTTTLTDCLRRFTRPEHLGSSAKIKCSGCHSYQESTKQLTMKKLPIVACFHLKRFEHSAKLRRKITTYVSFPLELDMTPFMASSKESRMNGQYQQPTDSLNNDNKYSLFAVVNHQGTLESGHYTSFIRQHKDQWFKCDDAIITKASIKDVLDSEGYLLFYHKQFLEYE
For B3, the binding entry with PD-L1 in H157 cells was “binds”.

B4: USP22-C185A (enzyme, UniProt Q9UPT9 1-525)
chain: MVSRPEPEGEAMDAELAVAPPGCSHLGSFKVDNWKQNLRAIYQCFVWSGTAEARKRKAKSCICHVCGVHLNRLHSCLYCVFFGCFTKKHIHEHAKAKRHNLAIDLMYGGIYCFLCQDYIYDKDMEIIAKEEQRKAWKMQGVGEKFSTWEPTKRELELLKHNPKRRKITSNCTIGLRGLINLGNTAFMNCIVQALTHTPLLRDFFLSDRHRCEMQSPSSCLVCEMSSLFQEFYSGHRSPHIPYKLLHLVWTHARHLAGYEQQDAHEFLIAALDVLHRHCKGDDNGKKANNPNHCNCIIDQIFTGGLQSDVTCQVCHGVSTTIDPFWDISLDLPGSSTPFWPLSPGSEGNVVNGESHVSGTTTLTDCLRRFTRPEHLGSSAKIKCSGCHSYQESTKQLTMKKLPIVACFHLKRFEHSAKLRRKITTYVSFPLELDMTPFMASSKESRMNGQYQQPTDSLNNDNKYSLFAVVNHQGTLESGHYTSFIRQHKDQWFKCDDAIITKASIKDVLDSEGYLLFYHKQFLEYE
Take B4: the binding result in test [3] is reported as “binds”.

(Values after article PMC7362500.)
